Laboratory results: the supplement of paper PMC5949888
Most values lie at the floor of the assay. Slopes are relative: functional sequences can read slightly below zero.

What follows are substances tested on Saccharomyces cerevisiae PS128 hsf1 delta, HSF1(1-493) fusion (assay: growth estimate (transactivation domain function in HSF1 fusion, heat-shock survival) (a.u. (slope of normalised read count over time)); higher = stronger growth at 37°C, i.e. more transactivation activity). Settings: library: random library.

| Substance | growth estimate |
| --- | --- |
| SIGGSMNPSVRRTKT | < -0.25 |
| FAVIPFGCLGVELSLIHARA | < -0.25 |
| RTPKVVIRVSSSSFYALTKG | < -0.25 |
| RNAECLVPSRWLA | < -0.25 |
| AFAECAASGADGNTKF | < -0.25 |
| NSVALDAASGVHFSSITEGI | < -0.25 |
| FRLK | < -0.25 |
| YSQVGSYGLCNSQIHFPCLL | < -0.25 |
| RHC | < -0.25 |
| RTNPHSASRLKSVPPGQLST | -0.246 |
| CWGRNLWGLRGSLPHAYRGH | < -0.25 |
| ETLERTMKAHCRNAWDAIGS | < -0.25 |
| PLSTPAT | < -0.25 |
| LRECGDGRKSIFSIFELVVV | < -0.25 |
| PPDTHQCLATHPSSLVAQLL | < -0.25 |
| PPGLYEFFVPAGTKRATIAQ | < -0.25 |
| YECVPSKWEGVVRPSRVVLA | < -0.25 |
| SKRFEPISCLLRVWTSKRDG | < -0.25 |
| VLGSVGRAESHRNTRRRLCG | < -0.25 |
| PHPERVRISIGVSPASRTVR | < -0.25 |
| HFWNLGWSTSACGFHRLRTV | < -0.25 |
| TLEGGSQNYTTQPVA | < -0.25 |
| IVCM | < -0.25 |

| Substance | growth estimate |
| --- | --- |
| QNDWSVSRARFYWNIFSHRC | < -0.25 |
| HCSNLVSDYI | < -0.25 |
| NLRTEYHLASKEAYVRFG | < -0.25 |
| FRGVFGTQTAYSLRPDNTR | < -0.25 |
| SGDVAPAILVTLMAYRCLPG | < -0.25 |
| NDTVAENVVSVHTSRCLLFS | < -0.253 |
| NVLPEPPPYGLQLGHMC | < -0.25 |
| SGREPSTRERDMVITWPSRR | < -0.25 |
| LRAFGNGSKHSY | < -0.25 |
| WWMPSWQGSAHDQHVSVTPR | < -0.25 |
| ASKRYPVRAYTTG | < -0.25 |
| YSLR | < -0.25 |
| TAEGDRSDRSYGTGGHNLRG | < -0.25 |
| GVHGVGVLRGSLLLKTSPIV | < -0.25 |
| CPPGEQVDLCLVMRFSKERR | < -0.25 |
| LHFRNWVPSSGAANVLKGGA | -0.246 |
| YGMPTVLMCTNGPIRSCMKP | < -0.25 |
| RRGRRSAELLCGTRNAGVIG | < -0.25 |
| QNLRGNYNPRVRCFRLIFSP | < -0.25 |
| RSARNCQSGMAGTGDRSRIG | < -0.25 |
| ICKATHMGAEANGTNGNTFP | < -0.25 |
| KCVWPSIRSPPIIGDRGVGS | < -0.25 |
| MSSFICGSSRAGVGDRIGYE | < -0.25 |

Some values from the results shown:
growth estimate, MSSFICGSSRAGVGDRIGYE is entered as < -0.25
growth estimate, ICKATHMGAEANGTNGNTFP is entered as < -0.25
growth estimate, NDTVAENVVSVHTSRCLLFS is entered as < -0.253
growth estimate, LRAFGNGSKHSY is entered as < -0.25

(listing goes on)

| Substance | growth estimate |
| --- | --- |
| YPCVWQSVARESICHLLEGC | < -0.25 |
| VCSSYPGWTLSSERSDDPVV | < -0.25 |
| RHERPKRSGRTFCIHGESRT | < -0.25 |
| SCELALARA | < -0.25 |
| SQDSLLSVQSVQSVGVLCRI | < -0.25 |
| GRRPRSSVRVSGYSHHIQGY | < -0.25 |
| GAPAPEKEKIVGTPSLGA | < -0.25 |
| VSQNIPETTRRKQDS | < -0.25 |
| TGISRAGIEICSAGQCAQVV | < -0.25 |
| PLAMLLSVH | < -0.25 |
| HVWSR | < -0.25 |
| LGA | < -0.25 |
| TQGIYVRGH | < -0.25 |
| TLYCLMIKLEL | < -0.25 |
| RRCS | < -0.25 |
| LDPSRSI | < -0.25 |
| LPRGLRDSSLVRNWYLRFAK | < -0.25 |
| RGSGGLIVRRIGYASTMSPY | < -0.25 |
| SRSIRGPK | < -0.25 |
| HDCILGRTAGAVIPKSIAPI | < -0.25 |
| GEVICIKGSDSSSVSRRFCP | < -0.25 |
| RTCKTPDPVLNKVGHPVLSL | < -0.25 |
| SVVLAGLGFGRKPENSTGRR | < -0.25 |

| Substance | growth estimate |
| --- | --- |
| WVP | < -0.25 |
| HTRHH | < -0.25 |
| TVITIAHR | < -0.25 |
| THD | < -0.25 |
| AINGCASIVSPCTHRVRVIT | < -0.25 |
| FPVRCDIQYVRRGSALRARM | < -0.25 |
| VRYCNCRHPRKVHTPVER | < -0.25 |
| DIKFTYTWLRVGGHRV | < -0.25 |
| FLCLHALHLYGCGTLIAYRS | < -0.25 |
| AVLRPTGYPAYAVAPSLHVG | < -0.25 |
| YVTGYIRGRGTHV | < -0.25 |
| LSEESECQDH | < -0.25 |
| TSG | -0.246 |
| VMLAPG | < -0.25 |
| WCCS | < -0.25 |
| VSKERHGQQTDMRTPSG | -0.18 |
| HIGRYKS | -0.243 |
| VAVAASSMVK | < -0.25 |
| SKCHIAYMDRADRFLNIDLI | < -0.25 |
| LRCDFAPQVVTVIQIL | < -0.25 |
| HWIEISLSAMGSAGVGRTSG | < -0.25 |
| YRGPVR | < -0.25 |
| DWIRDHPRTSVRTRIRNRFR | < -0.25 |

| Substance | growth estimate |
| --- | --- |
| LPIETLDLGNIQGCRDTASL | < -0.25 |
| LFG | < -0.25 |
| EQSASNGADQGPRSRR | < -0.25 |
| GLVGPLSMPGFAGTTAGHGE | < -0.25 |
| SYAWDIPQALRLTVKPCALT | < -0.25 |
| SQCSYDWGVLVVSNRIARQV | < -0.25 |
| LLGVSR | -0.246 |
| LLTQGESRMGASNIS | < -0.25 |
| NSSYALFR | < -0.25 |
| RIARLA | < -0.25 |
| FDEKYIRVCTSRDYLLARPS | < -0.25 |
| AETRVV | < -0.25 |
| STSVEVRPDRSAQALIG | < -0.25 |
| RHRIPIRSSFGCEVTDGSCG | < -0.25 |
| LRTM | < -0.25 |
| LCTKCKILGSTRFIPRSVWS | < -0.25 |
| TPGLVHYR | < -0.25 |
| RLDRVGVWTVVAKCGVFNSI | < -0.25 |
| CQGRVGGALYFCLVARPCL | < -0.25 |
| GVRSGVSKSNTSPSEGSAVP | < -0.25 |
| LSEGSGLMANEWVGVPR | < -0.25 |
| FQLTWGDPGS | < -0.25 |
| RVSGVFSHRTIGLRILIADI | < -0.25 |

| Substance | growth estimate |
| --- | --- |
| NNVFRTR | < -0.25 |
| SAAIGWNRVTAAPVAIGIET | < -0.25 |
| TGVV | < -0.25 |
| CRGLRLNV | < -0.25 |
| IGFTWIRPVDMCFV | < -0.25 |
| LRVHPPNWKYFLATVVIEQG | < -0.25 |
| RVRGGLNKCVGAGKHRQLRH | < -0.25 |
| HRICTVTI | < -0.25 |
| ATYESSWTLKLRTQWSQLGL | < -0.25 |
| VLRYPGKGPHRRGKASNSNV | < -0.25 |
| WHSRNELPWLLEADYL | < -0.25 |
| ILNRSRYW | < -0.25 |
| IVPE | < -0.25 |
| AAREGITYTQQFCSVFGYWL | -0.151 |
| QCHFGICAGIDQLGVHA | < -0.25 |
| RRCIILHNALGDVQLQLFTL | -0.231 |
| LCLQMEEV | -0.243 |
| PGWFLHEQAKKQGRSQAPSR | < -0.25 |
| LVIYSATPFADRKVNPHDIF | < -0.25 |
| RGVLKTFITDVKCATLRLPG | < -0.25 |
| WWCRLDASEHLQLGSG | < -0.25 |
| ECYVLVFKGTY | < -0.25 |
| EVVNRCIERCWFRLGAYGGT | < -0.25 |

| Substance | growth estimate |
| --- | --- |
| TGIGKFVPGQLSLDNNSQYL | < -0.25 |
| AGLRSHLLLVPKCCQLNTSA | < -0.25 |
| LGATYDVVFRDLVVDPGRYV | -0.175 |
| AGDQCQDL | < -0.25 |
| GRPSMNCLP | < -0.25 |
| NVVVIG | < -0.25 |
| DGGSSCHLPSDGRRRSVLRH | < -0.25 |
| DTVRR | < -0.253 |
| PFVVRREVVLRRLPGIYAYP | < -0.25 |
| GHRSPIGGIYTVPGHMSEKA | < -0.25 |
| VRQISAVIFLAVGHVVPASL | < -0.25 |
| NSAHET | < -0.25 |
| SPGTVPSGPQVAMTPDGQKQ | < -0.25 |
| MTLNLG | < -0.25 |
| PGEDNHSWL | < -0.25 |
| SCFNSSLTPARVQFWRLRPC | < -0.25 |
| TNDKWCGNCLAALS | < -0.25 |
| WPVERWVSGE | < -0.25 |

Rewritten bar-delimited: entries from further up
Substance | growth estimate
VSQNIPETTRRKQDS | < -0.25
VSKERHGQQTDMRTPSG | -0.18
LCTKCKILGSTRFIPRSVWS | < -0.25
DTVRR | < -0.253
SCFNSSLTPARVQFWRLRPC | < -0.25
